Values quoted from earlier work, collected in US12491249B2, “Methods for manufacturing phthalocyanine dye conjugates and stable conjugates” (Rakuten Medical, Inc., priority 2015, dated 2025).
At least one structure is not confirmed: it was looked up by name or label, or the drawing left a doubt.

Conditions: at 652 nm; cited from earlier work

For `Oc1cccc(-c2c3nc(c(-c4cccc(O)c4)c4ccc([nH]4)c(-c4cccc(O)c4)c4nc(c(-c5cccc(O)c5)c5ccc2[nH]5)CC4)C=C3)c1` [Foscan, meta-tetrahydroxyphenylchlorin], the extinction coefficient is listed as 22000 M⁻¹ cm⁻¹.
